For this test, the target named is T1, SMARCAL1 (human (endogenous in HeLa)) (UniProt Q9NZC9).
T1 sequence: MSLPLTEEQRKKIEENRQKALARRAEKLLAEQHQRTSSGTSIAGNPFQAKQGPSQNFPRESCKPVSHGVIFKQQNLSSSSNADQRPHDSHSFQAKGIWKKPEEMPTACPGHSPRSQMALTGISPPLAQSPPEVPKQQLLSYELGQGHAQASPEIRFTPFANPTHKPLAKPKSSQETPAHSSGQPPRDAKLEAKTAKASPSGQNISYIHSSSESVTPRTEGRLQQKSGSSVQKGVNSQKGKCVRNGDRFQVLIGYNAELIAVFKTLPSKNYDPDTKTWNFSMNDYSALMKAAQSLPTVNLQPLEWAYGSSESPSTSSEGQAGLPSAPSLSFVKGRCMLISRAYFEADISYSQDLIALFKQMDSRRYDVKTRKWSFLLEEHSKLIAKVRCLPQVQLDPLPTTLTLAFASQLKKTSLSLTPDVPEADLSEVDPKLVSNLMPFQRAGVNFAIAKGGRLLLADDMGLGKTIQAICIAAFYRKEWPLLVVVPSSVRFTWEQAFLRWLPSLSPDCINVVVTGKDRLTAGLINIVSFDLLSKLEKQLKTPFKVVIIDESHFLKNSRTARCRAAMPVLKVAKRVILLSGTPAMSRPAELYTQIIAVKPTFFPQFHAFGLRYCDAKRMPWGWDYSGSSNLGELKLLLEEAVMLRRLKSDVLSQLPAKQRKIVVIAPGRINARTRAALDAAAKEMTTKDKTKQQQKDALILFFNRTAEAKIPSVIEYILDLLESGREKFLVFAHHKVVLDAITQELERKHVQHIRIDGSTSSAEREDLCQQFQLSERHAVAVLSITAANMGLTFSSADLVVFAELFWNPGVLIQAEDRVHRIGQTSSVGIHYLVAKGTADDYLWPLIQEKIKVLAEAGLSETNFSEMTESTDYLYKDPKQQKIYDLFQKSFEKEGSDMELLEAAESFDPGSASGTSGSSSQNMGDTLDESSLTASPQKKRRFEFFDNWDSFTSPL
The experiment in a line: co-IP; HeLa extracts in RIPA buffer (250 mM NaCl, 50 mM Tris.Cl pH 8.0, 2 mM EDTA, 1% NP-40); anti-SMARCAL1 or anti-BRG1, protein G beads, 4°C, 16 h; cells untreated or treated with 2 μM doxorubicin for 10 min; IgG as negative control; western blot for both proteins. (In general: In western blotting, separated proteins are transferred to a membrane and probed.)

By UniProt entry, the sequences of proteins in these tests, tags left out.
UniProt P51532: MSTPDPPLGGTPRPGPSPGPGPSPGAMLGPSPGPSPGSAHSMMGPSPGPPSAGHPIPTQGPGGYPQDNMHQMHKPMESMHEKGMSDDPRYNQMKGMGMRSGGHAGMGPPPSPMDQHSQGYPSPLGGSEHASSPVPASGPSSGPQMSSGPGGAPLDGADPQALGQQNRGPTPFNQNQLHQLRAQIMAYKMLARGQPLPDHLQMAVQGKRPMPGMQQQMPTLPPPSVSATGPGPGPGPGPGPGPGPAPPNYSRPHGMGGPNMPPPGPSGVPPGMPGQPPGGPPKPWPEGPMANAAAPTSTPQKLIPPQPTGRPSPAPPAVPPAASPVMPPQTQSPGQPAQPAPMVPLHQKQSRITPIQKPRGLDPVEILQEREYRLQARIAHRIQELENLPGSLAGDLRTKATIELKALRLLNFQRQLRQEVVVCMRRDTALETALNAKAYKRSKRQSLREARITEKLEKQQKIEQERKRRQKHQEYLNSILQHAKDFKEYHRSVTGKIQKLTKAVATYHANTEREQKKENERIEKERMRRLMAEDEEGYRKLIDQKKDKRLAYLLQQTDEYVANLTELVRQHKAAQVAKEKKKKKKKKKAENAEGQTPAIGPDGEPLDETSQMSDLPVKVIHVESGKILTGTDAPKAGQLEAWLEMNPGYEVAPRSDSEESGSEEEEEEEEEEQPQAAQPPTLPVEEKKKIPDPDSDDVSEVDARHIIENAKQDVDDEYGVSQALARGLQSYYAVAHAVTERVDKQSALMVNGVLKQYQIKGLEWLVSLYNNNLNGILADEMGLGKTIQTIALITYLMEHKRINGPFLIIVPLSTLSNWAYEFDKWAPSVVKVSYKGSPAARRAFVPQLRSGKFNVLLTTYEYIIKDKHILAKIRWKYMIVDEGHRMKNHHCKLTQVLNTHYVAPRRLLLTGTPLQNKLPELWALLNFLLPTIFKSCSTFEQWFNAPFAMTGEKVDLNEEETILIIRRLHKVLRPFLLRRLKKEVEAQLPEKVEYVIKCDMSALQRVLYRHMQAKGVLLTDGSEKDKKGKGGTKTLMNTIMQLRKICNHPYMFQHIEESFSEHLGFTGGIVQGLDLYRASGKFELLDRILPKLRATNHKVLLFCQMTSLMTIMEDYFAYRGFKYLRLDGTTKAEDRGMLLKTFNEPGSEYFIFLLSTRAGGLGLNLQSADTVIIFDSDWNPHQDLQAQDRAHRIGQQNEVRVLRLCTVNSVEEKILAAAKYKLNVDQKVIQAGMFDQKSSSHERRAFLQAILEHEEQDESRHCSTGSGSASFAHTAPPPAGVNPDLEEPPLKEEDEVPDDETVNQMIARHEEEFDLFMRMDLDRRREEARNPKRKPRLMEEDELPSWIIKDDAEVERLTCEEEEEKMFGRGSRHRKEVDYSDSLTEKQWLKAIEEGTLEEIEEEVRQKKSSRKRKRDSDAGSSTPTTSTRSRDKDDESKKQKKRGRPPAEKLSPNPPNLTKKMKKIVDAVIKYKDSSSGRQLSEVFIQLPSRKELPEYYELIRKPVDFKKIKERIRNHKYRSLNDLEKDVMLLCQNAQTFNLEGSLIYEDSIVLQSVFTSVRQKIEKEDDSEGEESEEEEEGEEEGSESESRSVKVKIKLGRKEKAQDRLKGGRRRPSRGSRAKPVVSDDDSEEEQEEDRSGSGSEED

These are yes or no findings as the source states them, for the method shown. Binding seen in cells or lysates may run through a third protein. Some results given as binding are weak or reduced against the parent protein; the word gives no strength.

Consider BRG1 (from UniProt P51532 1-1647), for which the binding result is given as “binds”.

These data come from publication PMC9243424.
